Results from the supplement of paper PMC3334620.
Whole data set: some 33,000 sequences, median “E-score (-0.5 to 0.5)” near -0.0034, cut for the highest 2% near 0.25. This is one part of the list.

target: T1, Yap3 (UniProt P38749); assay: PBM E-score (8-mer binding enrichment) (E-score (-0.5 to 0.5)); higher = stronger / more preferred TF binding; settings: protein concentration: 100 nM; construct: GST-full length
T1 sequence: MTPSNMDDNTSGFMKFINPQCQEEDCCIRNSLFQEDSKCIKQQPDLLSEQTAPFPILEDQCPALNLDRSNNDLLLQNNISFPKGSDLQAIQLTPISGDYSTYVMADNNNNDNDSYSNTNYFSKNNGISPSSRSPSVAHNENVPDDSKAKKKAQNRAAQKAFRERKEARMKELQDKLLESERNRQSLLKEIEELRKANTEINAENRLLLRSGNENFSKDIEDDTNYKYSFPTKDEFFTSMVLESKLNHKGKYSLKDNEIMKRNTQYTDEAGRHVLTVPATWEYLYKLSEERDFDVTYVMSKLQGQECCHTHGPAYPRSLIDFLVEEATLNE
Method in brief: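 Using PURExpress in vitro transcription/translation, GST-tagged yeast transcription factors were made in full-length or DNA-binding-domain form. These were applied at about 100-200 nM to double-stranded universal all-10-mer Agilent arrays, and bound protein was detected with fluorescent anti-GST. Scans were normalised with masliner before the Universal PBM Analysis Suite assigned E-scores to ungapped eight-base words pooled with their reverse complements.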

Sequence	PBM E-score
ACATCCGG	0.0295
GCTTGGGA	-0.0903
ACAGCGTC	0.083
AGGAGCCT	-0.293
CACTGGAG	-0.201
ATCAGCAG	0.0685
GGTCCGTA	-0.184
CAGGAATA	0.0125
ACACTCCC	-0.0492
CATTTTCA	0.196
ATCATAAA	0.193
GGAATAAA	0.0795
CGGACCTA	0.033
GGGTCCAA	-0.13
TAAGTACA	0.18
ATTTAATC	0.212
CCAAGTTA	0.151
TTCCGAAA	-0.0107
ACGATTTG	0.0541
CTATTAGC	0.129
ACCTTCCG	0.0468
AAATGCCC	-0.181
AACTGGGT	-0.0982
GGTAAAGA	0.12
CTGTACCC	-0.331

4 records picked at random from those above:
Sequence	PBM E-score
AAATGCCC	-0.181
GCTTGGGA	-0.0903
ATCATAAA	0.193
CGGACCTA	0.033

(next part)

Sequence	PBM E-score
ATTAAATG	0.266
AATGAGTA	0.33
GCGGTGCA	-0.284
ATAGCCAA	0.178
AATTTTAA	0.212
GGTTCGCA	-0.127
CTGGCTTA	-0.176
CGTCTGAA	-0.104
AAAGGCAC	-0.114
CGCGTCGA	0.0342
ACAGCACG	-0.0482
ACCGAGCG	-0.0624
CTAAAACC	0.0765
CGGCCTAG	-0.214
ACTACTCA	0.108
ACGTACGT	0.024
ATACAACG	0.187
ATCATTTC	0.203
AACACCAA	0.126
AGTACAAG	0.0503
CAAGCCAA	0.0602
GAGTAGCA	0.0529
CAGACTAC	-0.108
CTTAATTA	0.174
CAACCTTA	0.131

Sequence	PBM E-score
ATAGACTC	-0.227
TCCGTGCA	-0.0352
GTGATGGA	0.049
ATTAAAGA	0.177
ATGTTTGC	-0.0647
TCGTTCCA	-0.14
AGTACTGG	-0.128
ACATCGTA	-0.0454
ACATACGA	0.179
CGTTCCAC	-0.126
TAGTCCAA	-0.111
AGGCCTGG	-0.145
ACACAGCG	0.148
ACCTGGCT	-0.173
AACATGAC	0.245
CGTCGCGA	0.141
GCAGTATA	0.0674
GAGTACGA	-0.0103
GCCATGGA	-0.125
TCGGCTCA	-0.114
AGTCCATC	-0.118
GTCGCTTA	0.0677
GTGCCCTA	-0.101
AATCCCAG	0.057
CTAGCGAC	-0.105

Sequence	PBM E-score
TATCGGAA	0.0684
CTAACCAC	0.0836
ACTGCTTC	-0.0537
CGTTTGTC	-0.0669
GATTGCCC	0.0434
GATGCACC	-0.0762
AGGACTAG	-0.118
CGTCAAGC	-0.124
GTCCGTGA	-0.162
CACTCTGC	0.038
CGGGGGCC	-0.405
GGTCGGTA	0.0806
AGACTGAT	0.0259
GTGGACCA	0.0252
AATGTTCA	0.0495
CAAGAAGG	0.0713
AGAAAAAG	0.00052
CTGCCAAG	-0.169
GAAGGCCC	-0.237
CCTTCCCG	-0.249
GCGGGGAA	0.0207
AGGGAAGC	-0.108
TCGAGAAA	0.0318
AGTCAGGA	0.0736
GGTTGTAA	-0.0593

Sequence	PBM E-score
TCCTAGCA	0.0185
CCGAATGC	-0.118
TTCAAGAA	0.1
CGGGCCGA	-0.24
GCAGAAGA	-0.0769
AGACATAA	0.136
CCAGTACG	-0.102
ATTTTATG	0.21
CTACGTGC	-0.0924
CCGTATAG	0.0595
GTCTTTAA	0.0633
CTATTTAA	0.0559
ACTGCTCG	0.0537
TAGGAATA	0.0296
ACATAGCA	0.12
AGTTAAGG	0.127
ATCGCGGG	-0.0233
AGTCTGAG	-0.144
ATTGTTAG	0.153
GTATTCTA	0.109
CTGATGGC	-0.117
ACCAACGC	-0.135
AATTCGCG	0.0991
AGGATAAA	0.121
AGGAAACA	0.176

Already shown: an excerpt of the list.
Sequence	PBM E-score
AGACATAA	0.136
CCAGTACG	-0.102
ATTTTATG	0.21
CTACGTGC	-0.0924
CCGTATAG	0.0595
GTCTTTAA	0.0633
CTATTTAA	0.0559

Remaining list, next part

Sequence	PBM E-score
CCTTCTGC	-0.198
AATTTGTA	0.173
TAGCTCGA	0.022
GACGACCA	0.00521
ACAACATA	0.197
AATCAGCA	0.0716
ACACGACC	-0.0823
GTAGTGCA	0.123
AGACTTGG	-0.103
CCATCACG	0.00365
GGCATCAA	-0.285
CAAATAGG	0.0216
CTGCTCAC	-0.129
CTGTCAAC	0.104
GAACTGTA	0.208
ACCTGCGA	-0.132
CAAATTCG	0.107
GCAGAACC	-0.0873
TCAAAAGA	0.0523
CCGGCCTC	-0.244
CATCTCGA	0.0432
GCCGGTAA	0.0897
AACTAACT	0.0375
ATAGTTCC	0.155
AAAACCTG	-0.101

Sequence	PBM E-score
GATTCACA	0.00517
GTCTCAAA	-0.1
CAAAACCA	0.189
GAATCTTA	0.227
ATAAGTGC	0.063
GTCTTACA	-0.0632
ACAGCTTC	-0.0761
GTGGCTGA	-0.0435
GTAGGGAA	0.0975
CAAACCTC	-0.171
CGGGATGA	-0.0895
CAGTTTAG	-0.0276
CTCAAAAC	0.0422
CCCTCGTC	-0.0664
CGTCCTGA	-0.191
GACTCAAA	-0.0937
CTCTAAGA	0.0797
CTATTATC	0.146
AACGCTCA	-0.0423
CCACTTAG	0.00158
CCTGCCCC	-0.225
ATTCCGGC	-0.131
